Measured values from patent US20220364162.
For at least one entry, the source does not settle the construct or the ends of the probe. Tags and fusion partners may be left off the protein sequences shown.

Molecular target: T1, MutS (Thermus aquaticus) (UniProt Q56215)
T1 sequence (looked up, limits assumed): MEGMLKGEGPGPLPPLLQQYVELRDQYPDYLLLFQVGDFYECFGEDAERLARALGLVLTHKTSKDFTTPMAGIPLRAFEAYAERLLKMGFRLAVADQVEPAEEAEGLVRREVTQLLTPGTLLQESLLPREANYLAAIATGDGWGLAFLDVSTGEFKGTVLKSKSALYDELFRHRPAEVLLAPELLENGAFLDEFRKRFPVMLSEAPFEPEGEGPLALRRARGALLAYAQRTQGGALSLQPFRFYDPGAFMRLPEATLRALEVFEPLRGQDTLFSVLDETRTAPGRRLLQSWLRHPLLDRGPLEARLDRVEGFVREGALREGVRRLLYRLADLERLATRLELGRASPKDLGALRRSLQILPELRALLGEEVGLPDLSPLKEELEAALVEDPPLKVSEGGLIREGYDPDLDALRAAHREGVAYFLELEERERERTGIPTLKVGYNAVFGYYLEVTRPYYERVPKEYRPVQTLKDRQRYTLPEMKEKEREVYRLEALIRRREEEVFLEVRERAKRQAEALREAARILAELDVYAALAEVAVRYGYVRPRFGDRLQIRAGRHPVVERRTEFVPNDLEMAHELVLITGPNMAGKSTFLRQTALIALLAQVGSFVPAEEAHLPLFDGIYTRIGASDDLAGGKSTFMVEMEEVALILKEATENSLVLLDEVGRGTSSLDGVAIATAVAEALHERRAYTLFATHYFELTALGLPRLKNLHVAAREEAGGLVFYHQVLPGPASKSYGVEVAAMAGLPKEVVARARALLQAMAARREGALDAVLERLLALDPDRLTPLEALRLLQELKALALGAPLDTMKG
Test: binding assay
Details: probe strand 5'-thiol immobilised on Au-bridged nanoparticle; single-nanoparticle LSPR kinetics; kbinding 2.97e6 M-1 s-1; 100 mM NaCl, 5 mM MgCl2, pH 7.5, 18 C; purified recombinant protein; protein details: vendor Nippon Gene Co. (Tokyo); variant of homoDNA duplex (perfect match)

For “ATTGAAAGTTGCAGAATCTGCCCAGGGTCCAGCTGCTGCTCATACTACTGA (double strand) [GT mismatch duplex (4956A>G target on Probe-GT)]”, the Kd was 4.46 nM.
